Assay results: PubChem BioAssay AID342 (DTP/NCI, 2004)
The list is a part of this screen's results and no random one: it gathers tests that were run many times, whatever their T/C, doses with no T/C, and many T/C values between a quarter and a half above the control. Other doses and runs of a compound stand elsewhere. T/C is the treated group as % of the vehicle group. Schedules are NCI's codes, read here as Q, the interval in days (D) or hours (H), X, the number of doses. Some T/C values carry the count of animals alive at the toxicity check (mostly the fifth day); without a count, all were alive then. Some entries were tested several times; their values stand side by side, smallest first. Brackets with × give the number of equal values in this list. Some entries give survivors of the animals treated and no T/C: the source holds a T/C of zero for them, seemingly a mark for toxic or unscored doses. Survivors were counted at the toxicity check, usually on the fifth day, unless a day is given; later deaths do not show. Some schedule codes hold Z or #, which are not explained here.

Test system: Swiss mice, Sarcoma 180 sc, mean tumor weight T/C
Experiment: NCI In Vivo Anticancer Drug Screen. Data for tumor model Sarcoma 180 (subcutaneous) in Swiss mice
Details: T/C endpoint: mean tumor weight, higher T/C = larger tumour; for T/C: evaluated on day 8
How it was run: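 Mice bearing transplanted tumors were treated with compound, and survival or tumor size was measured. Values are expressed as the treated-group measurement (T) divided by the vehicle-treated control measurement (C).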

[1] = dose: 1.0 mg/kg/injection, schedule: Q01DX007 (ip), vehicle: carboxymethylcellulose (CMC)
[2] = dose: 80.0 mg/kg/injection, schedule: Q01DX007 (ip), vehicle: saline
[3] = dose: 250.0 mg/kg/injection, schedule: Q01DX007 (ip), vehicle: saline
[4] = dose: 500.0 mg/kg/injection, schedule: Q01DX007 (ip), vehicle: saline

## CN(Cc1cnc2nc(N)nc(N)c2n1)c1ccc(C(=O)N[C@@H](CCC(=O)O)C(=O)O)cc1
dose: 0.95 mg/kg/injection, schedule: Q01DX007 (ip), vehicle: carboxymethylcellulose (CMC)
  T/C: 149 % of control
[1]
  T/C: 143 % of control
dose: 1.0 mg/kg/injection, schedule: Q01DX007 (ip), vehicle: water
  survivor count: 3 of 6
dose: 2.0 mg/kg/injection, schedule: Q01DX007 (ip), vehicle: water
  survivor count: 2 of 6

## CO[C@H]1CC[C@@]2(C)C(=CC[C@@H]3[C@@H]2CC[C@]2(C)C(=O)C(=O)C[C@@H]32)C1
dose: 15.0 mg/kg/injection, schedule: Q01DX007 (sc), vehicle: steroid suspending solution
  survivor count: 3 of 6
dose: 50.0 mg/kg/injection, schedule: Q01DX007 (sc), vehicle: steroid suspending solution
  survivor count: 3 of 6

## NN1CCCC1
dose: 113.0 mg/kg/injection, schedule: Q01DX007 (ip), vehicle: carboxymethylcellulose (CMC)
  survivor count: 0 of 6
dose: 300.0 mg/kg/injection, schedule: Q01DX007 (ip), vehicle: saline
  survivor count: 2 of 6
dose: 450.0 mg/kg/injection, schedule: Q01DX007 (ip), vehicle: saline
  survivor count: 0 of 6

## CC(=O)OCC1OC(n2cnc3c(=S)nc(N)[nH]c32)C(OC(C)=O)C1OC(C)=O (stereo not drawn)
dose: 50.0 mg/kg/injection, schedule: Q01DX007 (ip), vehicle: other
  survivor count: 2 of 6
[2]
  survivor count: 3 of 6
[3]
  survivor count: 0 of 6

## O=C(O)CCCc1ccc(N(CCCl)CCCl)cc1
dose: 15.4 mg/kg/injection, schedule: Q01DX007 (ip), vehicle: carboxymethylcellulose (CMC)
  survivor count: 4 of 10
dose: 24.1 mg/kg/injection, schedule: Q01DX007 (ip), vehicle: carboxymethylcellulose (CMC)
  survivor count: 3 of 10

## CCCCOP(=S)(N1CC1)N1CC1
dose: 6.6 mg/kg/injection, schedule: Q01DX007 (ip), vehicle: saline
  survivor count: 0 of 6
dose: 7.5 mg/kg/injection, schedule: Q#A X014 (ip), vehicle: saline
  survivor count: 1 of 6
dose: 10.0 mg/kg/injection, schedule: Q01DX007 (ip), vehicle: saline
  survivor count: 0 of 6
dose: 11.25 mg/kg/injection, schedule: Q#A X014 (ip), vehicle: saline
  survivor count: 1 of 6
dose: 15.0 mg/kg/injection, schedule: Q01DX007 (ip), vehicle: saline
  survivor count: 0 of 6
dose: 22.5 mg/kg/injection, schedule: Q01DX007 (ip), vehicle: saline
  survivor count: 0 of 6

## C=CN1CCCC1=O
dose: 68.0 mg/kg/injection, schedule: Q01DX007 (ip), vehicle: saline
  T/C: 132 % of control
dose: 222.0 mg/kg/injection, schedule: Q01DX007 (ip), vehicle: saline
  T/C: 43 (2×), 45, 49 [5 of 6 alive], 112 % of control
dose: 333.0 mg/kg/injection, schedule: Q01DX007 (ip), vehicle: saline
  T/C: 2 [5 of 6 alive], 31 [5 of 6 alive], 35, 40, 46 % of control
[4]
  survivor count: 3 of 6
dose: 750.0 mg/kg/injection, schedule: Q01DX007 (ip), vehicle: saline
  survivor count: 0 of 6

## C=CCCCCCCCCC(=O)O
[3]
  T/C: 125 % of control
[4]
  T/C: 127 % of control

## CCCC(=O)OCC1OC(n2cnc3c(=S)nc[nH]c32)C(OC(=O)CCC)C1OC(=O)CCC (stereo not drawn)
dose: 250.0 mg/kg/injection, schedule: Q01DX007 (ip), vehicle: carboxymethylcellulose (CMC)
  survivor count: 0 of 6 and 2 of 6

## [N-]=[N+]=CC(=O)NCC(=O)NN
dose: 750.0 mg/kg/injection, schedule: Q01DX007 (ip), vehicle: other
  survivor count: 3 of 6
dose: 800.0 mg/kg/injection, schedule: Q01DX007 (ip), vehicle: water
  survivor count: 3 of 6
dose: 900.0 mg/kg/injection, schedule: Q01DX007 (ip), vehicle: other
  survivor count: 2 of 6

## Nc1nc(=S)c2ncn(C3OC(COC(=O)c4ccc([N+](=O)[O-])cc4)C(OC(=O)c4ccc([N+](=O)[O-])cc4)C3OC(=O)c3ccc([N+](=O)[O-])cc3)c2[nH]1 (stereo not drawn)
dose: 80.0 mg/kg/injection, schedule: Q01DX007 (ip), vehicle: carboxymethylcellulose (CMC)
  survivor count: 3 of 6

## SCc1ccccn1
dose: 250.0 mg/kg/injection, schedule: Q01DX007 (ip), vehicle: other
  survivor count: 3 of 6
dose: 500.0 mg/kg/injection, schedule: Q01DX007 (ip), vehicle: other
  survivor count: 0 of 6

## COC1C(OC(=O)/C=C/C=C/C=C/C=C/C(=O)O)CCC2(CO2)C1C1(C)OC1CC=C(C)C (stereo not drawn)
dose: 400.0 mg/kg/injection, schedule: Q01DX007 (ip), vehicle: carboxymethylcellulose (CMC)
  survivor count: 0 of 6
dose: 600.0 mg/kg/injection, schedule: Q01DX007 (ip), vehicle: carboxymethylcellulose (CMC)
  survivor count: 0 of 6

## CC1CN(C(=O)CCl)c2ccccc2N1C(=O)CCl (stereo not drawn)
[1]
  T/C: 132 % of control
dose: 8.0 mg/kg/injection, schedule: Q01DX007 (ip), vehicle: carboxymethylcellulose (CMC)
  T/C: 125 % of control

## C[C@]12C=CC(=O)C=C1CC[C@@H]1[C@@H]2[C@@H](O)C[C@@]2(C)[C@H]1CC[C@]2(O)C(=O)CF
dose: 45.0 mg/kg/injection, schedule: Q01DX007 (sc), vehicle: steroid suspending solution
  survivor count: 4 of 7
dose: 240.0 mg/kg/injection, schedule: Q01DX007 (sc), vehicle: steroid suspending solution
  T/C: 24 [6 of 7 alive], 29, 31 [7 of 8 alive], 36 % of control
dose: 360.0 mg/kg/injection, schedule: Q01DX007 (sc), vehicle: steroid suspending solution
  survivor count: 4 of 7

## c1ccc(CNc2ncnc3[nH]ncc23)cc1
dose: 32.0 mg/kg/injection, schedule: Q01DX007 (ip), vehicle: carboxymethylcellulose (CMC)
  survivor count: 0 of 6
dose: 62.0 mg/kg/injection, schedule: Q01DX007 (ip), vehicle: carboxymethylcellulose (CMC)
  survivor count: 1 of 6
dose: 62.5 mg/kg/injection, schedule: Q01DX007 (ip), vehicle: carboxymethylcellulose (CMC)
  survivor count: 0 of 6

## Nc1n[se]nc1C(=O)O
dose: 4.0 mg/kg/injection, schedule: Q01DX007 (ip), vehicle: carboxymethylcellulose (CMC)
  survivor count: 0 of 6

## CS(=O)(=O)OCC#CCOS(C)(=O)=O
[2]
  survivor count: 1 of 6

## Nc1nc(=S)c2ncn(C3OC(CO)C(O)C3O)c2[nH]1 (stereo not drawn)
[1]
  T/C: 140 % of control

## CO[C@H]1CC[C@@]2(C)C(=CC[C@H]3[C@@H]4C[C@H](O)C[C@@]4(C)CC[C@@H]32)C1
dose: 10.0 mg/kg/injection, schedule: Q01DX007 (sc), vehicle: steroid suspending solution
  T/C: 131 % of control

## Cc1cc2c(c3oc(C4(C)OC4C4OC4C)cc(=O)c13)C(=O)c1c(O)c(C3CC(C)(N(C)C)C(O)C(C)O3)cc(C3CC(N(C)C)C(O)C(C)O3)c1C2=O (stereo not drawn)
dose: 0.2 mg/kg/injection, schedule: Q01DX007 (sc), vehicle: other
  survivor count: 3 of 6
dose: 0.4 mg/kg/injection, schedule: Q01DX007 (sc), vehicle: other
  survivor count: 0 of 6

## C[C@H]1C[C@@H]2[C@H]([C@@H](O)C[C@@]3(C)[C@H]2CC[C@]3(O)C(=O)CO)[C@@]2(C)C=CC(=O)C=C12
dose: 200.0 mg/kg/injection, schedule: Q01DX007 (sc), vehicle: water
  survivor count: 4 of 7

## C[C@@H]1C[C@H]2CC[C@H](O2)[C@H](C)C(=O)O[C@@H](C)C[C@@H]2CC[C@@H](O2)[C@@H](C)C(=O)O[C@H](C)C[C@H]2CC[C@H](O2)[C@H](C)C(=O)O[C@@H](C)C[C@@H]2CC[C@@H](O2)[C@@H](C)C(=O)O1
dose: 15.0 mg/kg/injection, schedule: Q#A X014 (ip), vehicle: olive oil, sesame oil, peanut oil
  survivor count: 3 of 6
dose: 36.0 mg/kg/injection, schedule: Q01DX007 (sc), vehicle: methylcellulose (MC)
  T/C: 129 % of control
dose: 45.0 mg/kg/injection, schedule: Q#A X014 (ip), vehicle: carboxymethylcellulose (CMC)
  survivor count: 3 of 6
dose: 75.0 mg/kg/injection, schedule: Q#A X014 (sc), vehicle: olive oil, sesame oil, peanut oil
  survivor count: 3 of 6

## CCC1OCCN1C(C)C (stereo not drawn)
dose: 187.5 mg/kg/injection, schedule: Q01DX007 (ip), vehicle: saline
  survivor count: 2 of 7

## CCCCCCC(=O)NC1=C(N2CC2)C(=O)C(NC(=O)CCCCCC)=C(N2CC2)C1=O
dose: 62.5 mg/kg/injection, schedule: Q#A X014 (ip), vehicle: methylcellulose (MC)
  survivor count: 2 of 6 and 3 of 6
dose: 93.75 mg/kg/injection, schedule: Q#A X014 (ip), vehicle: methylcellulose (MC)
  survivor count: 1 of 6
